The values that follow come from article PMC7819943, “Rice protein-binding microarrays: a tool to detect cis-acting elements near promoter regions in rice”.

By UniProt entry, the sequences of proteins in these tests, tags left out.
UniProt Q0JBA9, entry or part of it: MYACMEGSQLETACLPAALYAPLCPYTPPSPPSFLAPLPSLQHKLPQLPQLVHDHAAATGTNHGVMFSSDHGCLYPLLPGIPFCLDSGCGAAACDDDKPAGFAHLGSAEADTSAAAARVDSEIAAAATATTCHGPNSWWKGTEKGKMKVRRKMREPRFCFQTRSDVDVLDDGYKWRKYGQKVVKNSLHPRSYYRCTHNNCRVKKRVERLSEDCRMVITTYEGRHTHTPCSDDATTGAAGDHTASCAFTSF

Some of the results follow.

The experiment has as its target OsWRKY34 (Oryza sativa, UniProt Q0JBA9 1-250). Briefly: protein-binding microarray (RPBM); PBS, 2% BSA, 51.3 ng/ul salmon testes DNA, 50 uM zinc acetate, 200 nM TF, 25 C, 1 h; high values mean tight binding. The settings on record: protein: recombinant; tags: N-terminal polyhistidine and DsRed monomer fusion (pET32a); label: CyDye5-dUTP incorporated in the synthesized complementary strand; 3' TTTTT single-stranded linker to array surface; dsDNA, one strand shown. An outline of the steps:
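The binding signal is fluorescence intensity per array feature (arbitrary units). Readings came from an Axon 4000B scanner after a washed, 2% BSA-blocked, double-stranded custom Agilent array had been incubated for 1 h at 25 °C with 200 nM protein and 50 µM zinc acetate. The protein was a Ni–NTA-purified transcription factor fused N-terminally to polyhistidine and DsRed, expressed in E. coli BL21-CodonPlus.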
In the case of “CCTCACGGATAAGGGCGGGATGTTTTCGGCCGAAACCGTGCGGAGTCACCTAGTGCAG”, the binding signal is 8050 fluorescence intensity (a.u.). For “CTTTCGTACGACTCGTCATTATCACCGTGTCTCTCGTAAGCGGAGTCACCTAGTGCAG” the value was 8040 fluorescence intensity (a.u.); for “ATCCGGTTTACACCATTTTACTCGTGTCCTATTTTTACCGCGGAGTCACCTAGTGCAG”, 11600 fluorescence intensity (a.u.); for “ACGCCGGTCATCCTCATCTGCTGCTTCTTCCACAATAGATCGGAGTCACCTAGTGCAG”, 9110 fluorescence intensity (a.u.).

Take “CCACGCCACGCCACGCCACCTTGCGCGCGCGCGCGCACACCGGAGTCACCTAGTGCAG”: the binding signal was 9410 fluorescence intensity (a.u.). Regarding “CCGGTGGTCCTGGTGGTGGTTGTGTTTGTCGGCGTTGTGGCGGAGTCACCTAGTGCAG”, the binding signal is 9470 fluorescence intensity (a.u.). For the sequence “AAATTTTTATATGCTGTGTATTTTCTATTTTTTTTATTTTCGGAGTCACCTAGTGCAG”, the binding signal is 11100 fluorescence intensity (a.u.). Under “ATTGTATTTCTATATGGACTCTGCTTTTTATTTTTCTCCGCGGAGTCACCTAGTGCAG” stands 8930 fluorescence intensity (a.u.). For “TTGTGGCAATGGCGGCGGTGGCGGTGGCGGTTGGGGTGGCCGGAGTCACCTAGTGCAG” the value was 11500 fluorescence intensity (a.u.). Regarding “CCACCGCCGTTAGCTTCGCCGCACCACATAGCACCCCGGCCGGAGTCACCTAGTGCAG”, the binding signal is 8850 fluorescence intensity (a.u.). Under “ATGCTCAAACTAAGCTCACACCGCACTTCACATATACTCACGGAGTCACCTAGTGCAG” stands 8420 fluorescence intensity (a.u.); under “GAAATTTCCTTCCTTGTTTCTCAGCGCATGTTTAAATAGCCGGAGTCACCTAGTGCAG”, 10100 fluorescence intensity (a.u.); under “CTTTATTAACGGTGTGGGGACTGGGGATTGGCTGAGGACGCGGAGTCACCTAGTGCAG”, 8900 fluorescence intensity (a.u.). For “ACGCCTACCACACTACTACCACATTTCATCGATCCATCAGCGGAGTCACCTAGTGCAG” the value was 13300 fluorescence intensity (a.u.). For “CTCTCTTCTCCGGCGTCCATAAATACCAGCGCCACCCTCCCGGAGTCACCTAGTGCAG” the value was 8920 fluorescence intensity (a.u.). For the sequence “CTTTCTCCTACCCAAATCCATCCACCCAACATCTTTTTTCCGGAGTCACCTAGTGCAG”, the binding signal is 9550 fluorescence intensity (a.u.). On to “TTGATATTTATTTTCCCTGGCGGTTGTTAGGTTTTCGCATCGGAGTCACCTAGTGCAG”, for which the binding signal was 8240 fluorescence intensity (a.u.).

As for “ACACTCTTTTTTTTCACTGAACCGAACCATTATCTGCCAACGGAGTCACCTAGTGCAG”, the binding signal was 9640 fluorescence intensity (a.u.). For “TTGCCGCCACCTCCTCCTCGCGACACCGCTCGCCGTCGGTCGGAGTCACCTAGTGCAG” the value was 8750 fluorescence intensity (a.u.). For “TATTTGACGCCGTTGATTTTTTTAAATATGTTTGACCGTTCGGAGTCACCTAGTGCAG” the value was 11000 fluorescence intensity (a.u.); for “AAGGGCAGAGGAGAGGAGTTGCAGTGTGGTGTGTGGCATGCGGAGTCACCTAGTGCAG”, 8870 fluorescence intensity (a.u.).

As for “GCCAGCTTGTCCTCACATGAACAGTTAGTCAACCCCAACACGGAGTCACCTAGTGCAG”, the binding signal was 9300 fluorescence intensity (a.u.).

With “ACTCTTCTTTTAATCAGCTTTGCTAATCCAGCCTGGAAGACGGAGTCACCTAGTGCAG”, the binding signal was 9220 fluorescence intensity (a.u.). Turning to “TAGTTATTCCGCTATTGTACCTGCTCTTACCTCTCCCTAACGGAGTCACCTAGTGCAG”, the binding signal is 11500 fluorescence intensity (a.u.).

In the case of “CCGTACCATGAGTTGTCCTGCTGTGCATATAAAACTGCCACGGAGTCACCTAGTGCAG”, the binding signal is 8400 fluorescence intensity (a.u.).

Take “TTGTAGGGTGGGGTTCACTGGACGTTGGAAAAAGTACGAACGGAGTCACCTAGTGCAG”: the binding signal is 10800 fluorescence intensity (a.u.). For “TGTTGCTGTGTCGTGTGGTCGTGACTCGTGTGACTCGGTGCGGAGTCACCTAGTGCAG” the value was 8870 fluorescence intensity (a.u.); for “TACACACAACTTTTCAGTCACATCGTACCAATTTCAACCCCGGAGTCACCTAGTGCAG”, 8380 fluorescence intensity (a.u.); for “ACGTTTTTCATATTCCTGTGTTTTTCCTATCCTGCGTTTCCGGAGTCACCTAGTGCAG”, 10900 fluorescence intensity (a.u.). Regarding “ATTTTAGTCACCTTGTCTCCTATAAAATCCTCACCTTTTCCGGAGTCACCTAGTGCAG”, the binding signal was 9660 fluorescence intensity (a.u.).

For the sequence “AGTCAATTCCCGTGTTCCACTTCACCCTTTTCCGGTCGTCCGGAGTCACCTAGTGCAG”, the binding signal is 10700 fluorescence intensity (a.u.). For “ATCCACTACCCCAACTACATCGATCGATCACCGCATTTTCCGGAGTCACCTAGTGCAG” the value was 10000 fluorescence intensity (a.u.); for “CTCTTAGCGGTTTTGTCTGATGTGGTGGCTGAGTCATCGTCGGAGTCACCTAGTGCAG”, 9520 fluorescence intensity (a.u.); for “GATTGGCACTAAAATTCTGTTTAGACTACCGTTTGGTTTTCGGAGTCACCTAGTGCAG”, 8320 fluorescence intensity (a.u.). For “ACTGATTTGTTTGAGTCAAACCTATTGTTCATATATGCCACGGAGTCACCTAGTGCAG” the value was 8730 fluorescence intensity (a.u.); for “GCTACTACACCCTGGTCTGGTTGGTTTTCTGTGCGGCGCCCGGAGTCACCTAGTGCAG”, 10100 fluorescence intensity (a.u.). For “TCAGGGCCGTGATCACGCAGACGTCTCTATTTGGGGTTTTCGGAGTCACCTAGTGCAG” the value was 8760 fluorescence intensity (a.u.). Consider “GCTCGGGGCAGGGGCGGACGCTCAAGGGCCGGGACCTCCGCGGAGTCACCTAGTGCAG”, for which the binding signal was 8440 fluorescence intensity (a.u.). “ATATTCCGGAGGACTTCGCTTGTTTGTCTACCACACGGCCCGGAGTCACCTAGTGCAG”: the binding signal was 9190 fluorescence intensity (a.u.).

On to “AATGGCATTGACCAGAGTTAACTATTGCCGTTTGTTGGTTCGGAGTCACCTAGTGCAG”, for which the binding signal is 8590 fluorescence intensity (a.u.).

On to “AGCCTGCTCCGTTTTCCGTGCCAAAAGGATTATTTCCCGTCGGAGTCACCTAGTGCAG”, for which the binding signal is 8130 fluorescence intensity (a.u.). Under “GCGCTTAACTTTGATCGTCTGTCTTATTTAAATTTTTTTTCGGAGTCACCTAGTGCAG” stands 11300 fluorescence intensity (a.u.).
